Experimental data published in PubChem BioAssay AID1508600 (Functional Genomics Laboratory (NCATS/FGL), 2020).
About 3,700 (7%) of roughly 53,000 sequences were called active.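 Rule for the calls: active = gene knockdowns whose robust z-score for IL-1 alpha signal is at least 2 or at most -2, so actives lie on both sides; inactive = the rest.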 This is one part of the list.

Test: Components of the Cytosolic LPS Sensing Pathway: Gene Identification via Genome-wide siRNA Screen;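 note: robust z of the log signal after scaling to non-targeting control siRNA wells of the plate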
Settings: RAW264.7 macrophages, IL-1a HTRF, actives lie on both sides, screened at 100 nM (by protocol), cells primed 5 h with Pam3CSK4 first
In short: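 Read-out: IL-1a HTRF on supernatant, divided by plate negative-control median ×100, log-transformed and converted to robust z-score. Cells were RAW264.7 given 100 nM siRNA, Pam3CSK4-primed 5 hours, then LipidA-transfected 24 hour.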
With GCCCAUUAUAGGAAAGAACTT against Rhox12 the z-score was inactive: 0.27.
In the case of GGAAGAAGAAGAGAGAGAATT against Ccdc148, the z-score is reported as inactive: -1.92.
For UAGCACCAUUUUUCAGAACTT against Ascc1, the z-score was inactive: 0.283.
In the case of CCUUUGAGACAACCAGUCCTT against Entpd2, the z-score is reported as inactive: 1.31.
With GGGCGACACAAGGUUUUUGTT against Kif3a the z-score was active: 2.61.
In the case of UCAGAACCAUUUCUGUGCGTT against Pou4f1, the z-score is reported as inactive: 0.137.
With CGAGAAUGUGUCUUCUUUATT against Trpm8 the z-score was inactive: -0.0999.
With GAAUGCGGCUGUAUGAGAATT against Crygc the z-score was inactive: 0.404.
For GGAGUGACUAACCCUCUAGTT against Ccnk, the z-score was inactive: -0.529.
In the case of GGAAUAUGCUGCAAAAAUCTT against Camk2g, the z-score is reported as inactive: -1.58.
In the case of GGUUGCCAAUGACACUCGGTT against Trak2, the z-score is reported as inactive: -0.342.
With GGCUAGUACCAACAUGACCTT against Doxl1 the z-score was inactive: 1.14.
With CGAGAACUUAAAAUGGGAATT against Cd3e the z-score was inactive: -0.475.
With GCUUUGAUGGAUUCUAAUCTT against Htt the z-score was inactive: 1.09.
For GGUUUUAGUAAACUUCCCATT against Fam76b, the z-score was inactive: -0.692.
In the case of GCCUGAUGGACCAUGUUUATT against Slc9b2, the z-score is reported as inactive: 0.369.
In the case of GGUUGUCGUCAACAAGAGCTT against Krt72, the z-score is reported as inactive: 1.96.
With GGAUGUGAUAUUAUAAAGGTT against Apba1 the z-score was inactive: -1.24.
With GGUCAUGCUCAUCUUCUAUTT against Pigq the z-score was inactive: -1.4.
With CCACCGGAAUGACAUAAUGTT against Klk11 the z-score was inactive: -0.578.
With GGCCUACAUGAACCAGAGATT against Bloc1s1 the z-score was inactive: -0.24.
In the case of GGAGGACUCCAAGACCUUCTT against Rcn1, the z-score is reported as inactive: -0.599.
With GCCCUUUCAUCAAUAAUGUTT against Slc12a7 the z-score was inactive: -0.113.
With GGCCCUUUAACACAUACCCTT against Pak4 the z-score was inactive: 0.00391.
In the case of CGCGGUGUUCGACAUCUUGTT against Noc4l, the z-score is reported as active: 2.12.
In the case of GGUCAGAGUCAUCAACUUATT against Asb8, the z-score is reported as inactive: 0.721.
In the case of GGAUGAAGCAGAAGAAUAATT against Spg7, the z-score is reported as inactive: -0.131.
For GGGCAACAUGUUAUUCUACTT against Psg29, the z-score was inactive: -0.051.
In the case of GCAUGUUUUACAGUGUUCATT against Rxfp1, the z-score is reported as active: 2.7.
With GGUCUUGCUGAUCAACAACTT against Adgrb2 the z-score was active: 2.53.
With GGAGUUAAAUCCCAAACACTT against Scgb2b24 the z-score was inactive: 0.896.
With GGGUGGAGUAUUUUUCUUGTT against Ube2d2a the z-score was inactive: 0.0678.
With “GGAAAGAGGGUUUAUUUUGTT against 4930556L07Rik” the z-score was inactive: 0.919.
In the case of CCCUUGCUACAAUGAUGCCTT against Mfge8, the z-score is reported as active: 2.56.
With CGUGGACAUCGAUAUCACCTT against Slc26a8 the z-score was inactive: -0.737.
For GGAAAAACUACAUGGUAAATT against Ttll9, the z-score was inactive: 0.154.
With GGUGCUGAUGAAGUUCAUGTT against Ap1b1 the z-score was inactive: 1.47.
For GGGAAACAGUGAAAAGUUCTT against Mblac1, the z-score was inactive: -0.945.
With GGUUGUGUCUUCUUUUCUCTT against Cenph the z-score was inactive: 0.392.
With GGAUAUUCCUGCUGUCACCTT against Dmrt1 the z-score was inactive: -1.67.
In the case of GGAUGGUUAUGUGUGGAGUTT against Socs4, the z-score is reported as inactive: 0.528.
For CCUCCACUGCUUUUGUCUATT against Olfr1436, the z-score was inactive: 0.114.
In the case of GGAGUGUUGGAUGCUACCATT against Ache, the z-score is reported as inactive: -1.12.
In the case of GCUCUUGAUGUUUAGAGUUTT against Usp17lf, the z-score is reported as inactive: 0.345.
In the case of GCACACCUAUGUCCACUCUTT against Aars, the z-score is reported as inactive: -0.923.
With CCAUGGAGUCUGGUUUCCUTT against Olfr591 the z-score was inactive: -0.668.
For GCACUUCACACUUAGGGUGTT against Tmem132e, the z-score was inactive: -1.16.
For “CCCAGUAUCCCAUAACCCATT against 1700022I11Rik”, the z-score was inactive: -1.17.
With GGAGACUUCUUUUUUGACATT against Myo7b the z-score was inactive: 0.63.
With GGAAAUUUGUAUCCCGAGUTT against Trp53 the z-score was active: -2.14.
In the case of CCCUAUCUCAAGGAAUAAATT against Pcyox1, the z-score is reported as inactive: -1.38.
With GGACCAAGGCUUGGAUCUUTT against Magea6 the z-score was inactive: 0.527.
For GAAUUUGCCAUUUUCAGUGTT against Cox7c, the z-score was inactive: 0.471.
For GGAGAAUCAGGGUAGCACATT against Txnl4a, the z-score was inactive: -0.52.
In the case of GGAAUAAAUAUUCCUCCUATT against Dis3, the z-score is reported as inactive: 0.318.
With GGAAAAGUUGAGGUUAUCATT against Ggt1 the z-score was inactive: -0.538.
With GGUUUACAUCCAUUGGCAATT against Tlnrd1 the z-score was inactive: 0.0774.
In the case of CCAUCUCAGAAAAGCUUGUTT against Tmed1, the z-score is reported as inactive: 0.417.
In the case of GGAAUAUCUGAUAUCAGUATT against Mdga2, the z-score is reported as inactive: 0.0727.
In the case of GGACAAACUACUUUUGUACTT against Tmprss3, the z-score is reported as inactive: -0.226.
In the case of GGAGUGUCUUUUCUUUAAUTT against Acvr2a, the z-score is reported as inactive: -0.0225.
In the case of “GGGUAUUAAAACCUCACUUTT against 4931406H21Rik”, the z-score is reported as active: -2.58.
For GCGAUUGAAAUGAGAGCUCTT against Hgd, the z-score was inactive: -1.55.
In the case of GGAAAUCAGAGAAUACUUCTT against Mfsd14b, the z-score is reported as active: 2.04.
With GGCCUUUUAAAUGUGUCCUTT against Zfp770 the z-score was inactive: -1.83.
For CCAUGCAACUUACCAAAGATT against Lrrc8d, the z-score was inactive: 0.183.
With “GGAAGCAACAACAUAAACUTT against 4933440M02Rik” the z-score was inactive: -0.206.
For GGAAUCUGUUGUUUCUCUUTT against Lpcat3, the z-score was inactive: 0.612.
With GGAGCUGUCACACCAUGAATT against Twsg1 the z-score was inactive: 0.0846.
In the case of GGGUGAGUACUCUUUAAAUTT against Nudt4, the z-score is reported as inactive: -1.53.
For GCGUGUGGAAGAAAAAGAATT against Nedd8, the z-score was inactive: -0.952.
For GCACACACGUAGAAGCGGATT against Erdr1, the z-score was inactive: -0.597.
In the case of GGGAGUUACAGCGGUAUGUTT against Krt9, the z-score is reported as inactive: -0.686.
With GGCUAACCUGAGCAAACAGTT against Plvap the z-score was active: -2.21.
In the case of GGAAGGCAUUUUUCAGGUATT against Popdc3, the z-score is reported as inactive: 1.22.
In the case of GGAGUUGUCUACCAAAGUUTT against Reep5, the z-score is reported as inactive: 0.609.
For ACUCAGUAGUUAAUGUGGGTT against Ypel2, the z-score was inactive: 0.0543.
In the case of CCCUAAAAAUUUUACCAAGTT against Mpp6, the z-score is reported as inactive: 0.841.
With CCUGAAUGACCUAGGGCCUTT against Adam8 the z-score was inactive: 0.286.
In the case of CCAGAAGUCUUGCUGUCUGTT against Arpp21, the z-score is reported as inactive: -0.427.
In the case of GCCCGAGAAGUGAAUCUUCTT against Pop7, the z-score is reported as inactive: 1.2.
In the case of GCAUUUAAUGGCAUUACUGTT against Otol1, the z-score is reported as inactive: 0.596.
For CGUUAUUUGAUUUCUUGGATT against Tdrd3, the z-score was inactive: 0.373.
In the case of GCCUUCCUGAAUUUAAAGATT against Myo5b, the z-score is reported as inactive: 1.33.
With GCCCAAAAAUACUGGAUAUTT against Atp6ap2 the z-score was inactive: -2.
In the case of GGUGCAAAGCCCUUUAAGUTT against Klf7, the z-score is reported as inactive: -0.334.
In the case of GCAUUAGCUGAUCAGCAUATT against Herc3, the z-score is reported as inactive: 0.836.
For GCCACACACCUUCUAUAAUTT against Ptprs, the z-score was inactive: -0.62.
For CCAAUUACCUGAAUAAAGCTT against Epb41l5, the z-score was inactive: 1.19.
With GGUUCUGGUGGUGAAUGUGTT against Kcnd1 the z-score was inactive: -1.51.
With GGCUUCCUCAUCGAUAUAATT against Ccnh the z-score was inactive: 0.21.
In the case of GGAGAUCAAAGAUUUGAUUTT against Pi4k2a, the z-score is reported as inactive: 1.75.
In the case of GCACUGAUGAUGUGGUGGCTT against Smdt1, the z-score is reported as inactive: 1.63.
In the case of GCUGUUUUACCUUAAUCCCTT against Tnfsf18, the z-score is reported as inactive: 0.601.
With GGCCAGGUUGAGGAUUUUGTT against Nop58 the z-score was inactive: -0.807.
With GGACACAUAAUGUCUACCUTT against Unc93a the z-score was inactive: -0.629.
With GGACCAGAGUAACUUGAAUTT against Zfp128 the z-score was inactive: -0.66.
For “CCAUUAAUUGAUGAUACUCTT against 1700019D03Rik”, the z-score was inactive: 0.531.
With GCAACAUGGAAUGACCGCUTT against Cul2 the z-score was inactive: 0.553.
In the case of GGGUACCUGUCCAAGGUCATT against Mfn2, the z-score is reported as inactive: 0.849.
For GCGGUCAUGACAAGUCACUTT against Slc9a7, the z-score was inactive: -0.24.
With GGCUGAAGAGGAUCGGUACTT against Atpif1 the z-score was active: 2.08.
In the case of GGAAUUUGAAGACACAGAATT against Arl2bp, the z-score is reported as inactive: -0.278.
In the case of GCAACUAUAGUGCUCUCACTT against Ggt7, the z-score is reported as inactive: 0.974.
With GGCCUAUCAGAUAAAGAAGTT against Vps37b the z-score was inactive: -1.04.
For GGGUGAGUUGUUAAAUCCUTT against Marchf11, the z-score was inactive: -0.443.
For GGAAGAGAGACUCAGCUCUTT against Galp, the z-score was inactive: -0.832.
